Reference: US20090012148A1, “REDUCING CELLULAR CHOLESTEROL LEVELS AND/OR TREATING OR PREVENTING PHOSPHOLIPIDOSIS” (priority 2005, published 2009)

test system: CT60 cells; experiment: Gas chromatography cholesterol assay; format: cell-based, Chinese hamster
Procedure: The cholesterol lowering effect of the 14 hit compounds identified by filipin labeling was measured by an alternative chemical method that involved GC separation of solvent-extracted cellular lipids (43). CT60 cells were treated with compounds at 10 μM under the same conditions as in the screening assays. Since the GC assay estimates FC content per cell, the values are compared to the average filipin intensity assay (Table 1).
CT60 or CT43 cells were plated on day 1 in 6-well plates. Hit compounds were added to the cells at 10 μM concentration. Cells were incubated for 24 h. Cellular lipids were extracted with hexane: iso-propyl alcohol (3:2 v/v). The lipid extracts were dried and re-suspended in hexane followed by separation on gas chromatograph using β-sitosterol as an internal standard.
Procedure: CT60 cells were plated in 6-well plates in Ham's F-12/1.176 g/L sodium bicarbonate/2 g/L glucose/10% FBS. Following 24 h incubation, cells were treated with 10 μM of each compounds, medium being replaced with Ham's F-12/1.176 g/L sodium bicarbonate/2 g/L glucose/5.5% FBS/20 mM HEPES. The change of the medium in the wells was performed to have experimental conditions similar to those used for the screening once chemical compounds were added to the cells. After 18 h treatment with compounds, cells were washed twice with Hank's balanced salt solutions (HBSS). Cellular lipids were extracted with hexane/isopropyl alcohol (3:2 v/v) (43) dried and resuspended in hexane followed by separation on a gas chromatograph (GC) using following conditions. A Hewlett Packard GC model HP 5890 series II (Palo Alto, Calif.) equipped with a flame ionization detector, split-splitless injector, and 15 m×0.53 mm HP-5 capillary column coated with […] film thickness of 5% phenyl methyl siloxane was used to separate free cholesterol. The injection temperature was maintained at 255° C. and oven temperature was held isothermally at 260° C. using helium as a mobile phase at 30 mL/min flow rate. The free cholesterol (FC) was quantified using beta-sitosterol as internal standard to correct for lipid losses during extraction.

SMILES | Protein Content (μg/well) Fraction of Control
COc1ccccc1Nc1nc(Nc2ccccc2OC)nc(Nc2ccccc2OC)n1 [Compound 2-a-9] | 0.94 ± 0.05 Fraction of Control
O=[N+]([O-])c1cccc(C=NNc2nc(Nc3cccc4ccccc34)nc(N(c3ccccc3)c3ccccc3)n2)c1 [Compound 2-a-13] | 0.97 ± 0.03 Fraction of Control
C=CCN1C(=O)C(=Cc2cc(C)n(-c3ccccc3)c2C)C(C(=O)OC)=C1C [Compound 2-a-15] | 0.84 ± 0.02 Fraction of Control
CCN(CC)c1ccc(C=C2SC(=S)N(c3ccc(OC)cc3)C2=O)cc1 [Compound 2-a-3] | 0.92 ± 0.04 Fraction of Control
